Test results from PMC8115288.
Results are given in words; binding and its absence hold for the method and conditions named.

The chains behind the UniProt entries cited, without tags or fusion partners. Residues count along the entry.
UniProt Q12824, residues 183-265: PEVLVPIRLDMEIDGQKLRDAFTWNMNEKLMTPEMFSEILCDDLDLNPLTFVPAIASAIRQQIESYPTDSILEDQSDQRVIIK

Biological target: INI1_(183-265) (Rpt1+linker domain of INI1/SMARCB1), His6-SUMO tag removed (UniProt Q12824)
Assay: AUC + other: NMR self-diffusion; sedimentation velocity at 25 °C, absorbance at 280 nm, 20 mM HEPES pH 7.5, 300 mM NaCl, 2 mM DTT, 5 % glycerol; both purified

INI1_(183-265) (Rpt1+linker domain of INI1/SMARCB1), His6-SUMO tag removed (from UniProt Q12824 183-265) (domain or fragment)
binding: no binding
